Results taken from paper PMC12700551.
No constants are given. Whether binding was seen depends on the method and setting. In cells and extracts the contact can be indirect. Some results given as binding are weak or reduced against the parent protein; the word gives no strength.

Amino acid sequences for entries named in this document (tags omitted). Residues count along the entry.
UniProt P70302, residues 23-685: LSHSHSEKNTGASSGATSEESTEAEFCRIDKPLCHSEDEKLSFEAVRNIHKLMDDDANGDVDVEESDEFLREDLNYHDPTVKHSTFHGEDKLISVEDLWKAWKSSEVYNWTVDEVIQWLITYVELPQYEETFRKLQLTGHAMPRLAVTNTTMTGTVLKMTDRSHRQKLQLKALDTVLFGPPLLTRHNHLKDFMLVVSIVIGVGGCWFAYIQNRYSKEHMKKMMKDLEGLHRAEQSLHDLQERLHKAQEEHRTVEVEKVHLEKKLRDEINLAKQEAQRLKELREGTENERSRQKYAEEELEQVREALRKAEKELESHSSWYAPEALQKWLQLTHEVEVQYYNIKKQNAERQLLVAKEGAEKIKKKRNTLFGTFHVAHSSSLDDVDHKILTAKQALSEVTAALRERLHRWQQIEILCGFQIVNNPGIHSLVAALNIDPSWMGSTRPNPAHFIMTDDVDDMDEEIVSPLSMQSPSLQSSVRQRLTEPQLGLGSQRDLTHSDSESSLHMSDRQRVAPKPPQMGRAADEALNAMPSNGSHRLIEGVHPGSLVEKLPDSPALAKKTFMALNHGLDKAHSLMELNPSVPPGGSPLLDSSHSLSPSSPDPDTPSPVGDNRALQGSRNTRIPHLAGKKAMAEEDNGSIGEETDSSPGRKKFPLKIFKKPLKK
UniProt Q13586, residues 23-685: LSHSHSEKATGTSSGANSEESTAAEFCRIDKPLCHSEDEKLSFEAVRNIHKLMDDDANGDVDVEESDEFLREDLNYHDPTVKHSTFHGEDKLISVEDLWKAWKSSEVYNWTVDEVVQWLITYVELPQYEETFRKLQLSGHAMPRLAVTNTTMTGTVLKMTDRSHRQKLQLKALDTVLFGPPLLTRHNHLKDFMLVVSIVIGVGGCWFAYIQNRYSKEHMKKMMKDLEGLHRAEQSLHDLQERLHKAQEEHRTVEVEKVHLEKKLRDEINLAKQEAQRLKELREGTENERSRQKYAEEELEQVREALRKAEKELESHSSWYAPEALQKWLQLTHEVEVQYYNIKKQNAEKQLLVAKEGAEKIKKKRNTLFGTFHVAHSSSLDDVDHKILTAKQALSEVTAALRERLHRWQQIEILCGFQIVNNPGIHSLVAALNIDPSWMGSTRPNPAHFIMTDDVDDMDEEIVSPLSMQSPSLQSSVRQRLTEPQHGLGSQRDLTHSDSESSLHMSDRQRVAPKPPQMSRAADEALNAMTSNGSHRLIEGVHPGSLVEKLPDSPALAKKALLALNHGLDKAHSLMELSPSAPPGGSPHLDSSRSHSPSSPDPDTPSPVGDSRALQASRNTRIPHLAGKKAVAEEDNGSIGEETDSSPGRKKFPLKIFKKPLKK

How the values were obtained:
[1] = biological target: STIM1 (UniProt P70302); assay: co-IP; co-immunoprecipitation of ASIC3 (whole, N-terminal, C-terminal) with STIM1; cells, tags and bait not stated in the main text (Supplemental Figure 8, A and B)
[2] = biological target: STIM1 in human AML cell lines (human (in THP-1, U937 and MOLM-13 cells)) (UniProt Q13586); assay: co-IP; co-immunoprecipitation in THP-1, U937 and MOLM-13 cells (Supplemental Figure 11A); bait not stated

binding [1]	binding [2]	Binder
binds		acid-sensing ion channel 3 (ASIC3) (protein, UniProt Q6X1Y6 1-530) MKPPSGLEEAQRRQASDIRVFANSCTMHGLGHIFGPGGLTLRRGLWATAVLLSLAAFLYQVAERVRYYGEFHHKTTLDERESHQLTFPAVTLCNINPLRRSRLTPNDLHWAGTALLGLDPAEHAAYLRALGQPPAPPGFMPSPTFDMAQLYARAGHSLEDMLLDCRYRGQPCGPENFTVIFTRMGQCYTFNSGAQGAELLTTPKGGAGNGLEIMLDVQQEEYLPIWKDMEETPFEVGIRVQIHGQEEPPAIDQLGFGAAPGHQTFVSCQQQQLSFLPPPWGDCNTASVDPDFDPEPSDPLGSPSSSPPYSLIGCRLACESRYVARKCGCRMMHMPGNSPVCSPQQYKDCASPALDAMLRKDTCVCPNPCATTRYAKELSMVRIPSRASARYLARKYNRSETYITENVLVLDIFFEALNYEAVEQKAAYEVSELLGDIGGQMGLFIGASLLTILEILDYLCEVFQDRVLGYFWNRRSSQRRSGNTLLQEELNGHRTHVPHLSLGPRPPTAPSAVTKTLAASHRTCYLVTRL
	binds	ASIC3 in human AML cell lines (protein, UniProt Q9UHC3 1-531) MKPTSGPEEARRPASDIRVFASNCSMHGLGHVFGPGSLSLRRGMWAAAVVLSVATFLYQVAERVRYYREFHHQTALDERESHRLIFPAVTLCNINPLRRSRLTPNDLHWAGSALLGLDPAEHAAFLRALGRPPAPPGFMPSPTFDMAQLYARAGHSLDDMLLDCRFRGQPCGPENFTTIFTRMGKCYTFNSGADGAELLTTTRGGMGNGLDIMLDVQQEEYLPVWRDNEETPFEVGIRVQIHSQEEPPIIDQLGLGVSPGYQTFVSCQQQQLSFLPPPWGDCSSASLNPNYEPEPSDPLGSPSPSPSPPYTLMGCRLACETRYVARKCGCRMVYMPGDVPVCSPQQYKNCAHPAIDAMLRKDSCACPNPCASTRYAKELSMVRIPSRAAARFLARKLNRSEAYIAENVLALDIFFEALNYETVEQKKAYEMSELLGDIGGQMGLFIGASLLTILEILDYLCEVFRDKVLGYFWNRQHSQRHSSTNLLQEGLGSHRTQVPHLSLGPRPPTPPCAVTKTLSASHRTCYLVTQL
